In PubChem BioAssay AID445 (National Center for Advancing Translational Sciences (NCATS), 2006) one finds AC50 data, which are given here for 17 compounds.

SMILES strings stand for the structures. The list shows a part of the results. Further columns of the screen follow, without active or inactive calls. Most of these compounds were active or inconclusive in the main read-out, so they are no random draw. Words in brackets tell the shape of the fitted curve; partial curves, single points and poor fits give uncertain potencies.

The nature of this test: IkB Signaling. To be noted: ABC-DLBCL IkBa-CBG/CBR dual luciferase ratio (green luciferase fused to IkBa over red control in OCI-Ly3 lymphoma cells), 4 h; measured here: control luc red channel unless noted. The method, boiled down: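 In this assay, an IκBα–CBG68 fusion accumulates when IKK-driven degradation is blocked; native CBR normalizes for cell number. OCI-Ly3 cells were treated 4 h with compound and doxycycline, then green and red light read after Chroma-Glo addition.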
Broadly, the AC50 is the concentration giving half of the maximal activity seen. Regarding `O=S(=O)(Cc1ccccc1)N1CCC(c2nc(-c3cccs3)no2)CC1`, the AC50 is 25.1 µM [falling, partial curve]. With `CC1=CC(=C2C(=O)c3ccccc3C2=O)C=C(C)N1Cc1ccco1`, the AC50 is 15.8 µM [falling, partial curve]. With `Cc1ccc(-n2ncc3c(NNC(=O)c4ccccc4C)ncnc32)cc1` the figure was 6.31 µM [falling, partial curve]. With `CC(C)c1ccc(C2c3c(-c4ccccc4O)n[nH]c3C(=O)N2CCc2ccccc2)cc1` (configuration not stated) the figure was 20 µM [falling, partial curve]. With `CC1=C(C(=O)Nc2ccccc2)C(c2ccc(C(=O)O)cc2)n2nc(SCC(=O)c3ccc(C)cc3)nc2N1` (configuration not stated) the figure was 7.94 µM [rising, single point]; with `CCN(CC)CCn1c(=N)n(CC(O)COc2ccccc2C)c2ccccc21` (configuration not stated), 25.1 µM [falling, single point]; with `Cc1ccc(Cn2c(=O)c3c(nc4n3CCN4c3cc(C)cc(C)c3)n(C)c2=O)cc1`, 12.6 µM [falling, partial curve]. Consider `COc1ccc(-c2nc(CCNC(=O)c3cc(OC)c(OC)c(OC)c3)cs2)cc1`, for which the AC50 was 10 µM [falling, partial curve, poor fit]. To `COc1ccc(CNC(=O)Cc2c(C)c3c(cc(C)c4c(C)coc43)oc2=O)cc1` belongs 25.1 µM [falling, single point]; to `Cc1ccc(-c2nnc(Nc3ccc(Cl)cc3)c3ccccc23)cc1S(=O)(=O)NCC1CCCO1` (configuration not stated), 5.01 µM [falling, full curve]. On to `O=C(c1cccc(Cl)c1)N1CCC(c2nc3c(nnn3Cc3ccc(F)cc3F)c(=O)[nH]2)CC1`, for which the AC50 is 39.8 µM [falling, single point].

Turning to `COc1ccc(C(=O)c2cn(Cc3ccccc3F)c3ccc(F)cc3c2=O)cc1`, the AC50 was 31.6 µM [falling, single point]. To `COc1ccc(-c2[nH]c(-c3ccc(OC)c(OC)c3)nc2SCC(=O)Nc2ccccc2)cc1` belongs 7.94 µM [falling, partial curve]; to `Cc1ccc(Nc2c(-c3ccc(N(C)C)cc3)nc3ccccn23)cc1`, 39.8 µM [falling, single point]; to `C=C(C)COc1ccc(-c2[nH]ncc2Oc2ccccc2OC)c(O)c1`, 39.8 µM [falling, single point]. With `CCOc1ccccc1C(=O)N(Cc1ccc(N(C)C)cc1)Cc1ccco1`, the AC50 was 25.1 µM [falling, single point]. With `CCCCOc1cccc(C(=O)N(Cc2ccc(Cl)cc2)C2CCS(=O)(=O)C2)c1` (configuration not stated) the figure was 39.8 µM [falling, single point].
